No constants are given. Whether binding was seen depends on the method and setting. In cells and extracts the contact can be indirect. These calls come from enrichment with a bait or labelling near it, and not all partners need be listed.
biological target: RKIP-3xFLAG fusion protein (UniProt P30086); assay: affinity purification with mass spectrometry; RKIP-3xFLAG from transfected SGC7901 cells held on anti-FLAG M2 magnetic beads (overnight, 4°C); 1D SDS-PAGE, in-gel trypsin digestion, ESI-Q-TOF MS/MS; 3xFLAG (blank carrier) and blank groups as controls; repeated three times

Amino acid sequences for entries named in this document (tags omitted).
UniProt P30086: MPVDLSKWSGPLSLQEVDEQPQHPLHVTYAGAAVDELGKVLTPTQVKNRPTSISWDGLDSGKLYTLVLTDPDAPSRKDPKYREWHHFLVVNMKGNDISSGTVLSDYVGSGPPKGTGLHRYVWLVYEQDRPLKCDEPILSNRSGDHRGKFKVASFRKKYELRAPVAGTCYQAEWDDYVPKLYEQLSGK

| Binder | binding |
| --- | --- |
| Aldo-keto reductase family 1 member C3 (protein, UniProt P42330 1-323) MDSKHQCVKLNDGHFMPVLGFGTYAPPEVPRSKALEVTKLAIEAGFRHIDSAHLYNNEEQVGLAIRSKIADGSVKREDIFYTSKLWSTFHRPELVRPALENSLKKAQLDYVDLYLIHSPMSLKPGEELSPTDENGKVIFDIVDLCTTWEAMEKCKDAGLAKSIGVSNFNRRQLEMILNKPGLKYKPVCNQVECHPYFNRSKLLDFCKSKDIVLVAYSALGSQRDKRWVDPNSPVLLEDPVLCALAKKHKRTPALIALRYQLQRGVVVLAKSYNEQRIRQNVQVFEFQLTAEDMKAIDGLDRNLHYFNSDSFASHPNYPYSDEY | binds |
| Isoleucyl-tRNA synthetase, cytoplasmic (protein, UniProt P41252 1-1262) MLQQVPENINFPAEEEKILEFWTEFNCFQECLKQSKHKPKFTFYDGPPFATGLPHYGHILAGTIKDIVTRYAHQSGFHVDRRFGWDCHGLPVEYEIDKTLGIRGPEDVAKMGITEYNNQCRAIVMRYSAEWKSTVSRLGRWIDFDNDYKTLYPQFMESVWWVFKQLYDKGLVYRGVKVMPFSTACNTPLSNFESHQNYKDVQDPSVFVTFPLEEDETVSLVAWTTTPWTLPSNLAVCVNPEMQYVKIKDVARGRLLILMEARLSALYKLESDYEILERFPGAYLKGKKYRPLFDYFLKCKENGAFTVLVDNYVKEEEGTGVVHQAPYFGAEDYRVCMDFNIIRKDSLPVCPVDASGCFTTEVTDFAGQYVKDADKSIIRTLKEQGRLLVATTFTHSYPFCWRSDTPLIYKAVPSWFVRVENMVDQLLRNNDLCYWVPELVREKRFGNWLKDARDWTISRNRYWGTPIPLWVSDDFEEVVCIGSVAELEELSGAKISDLHRESVDHLTIPSRCGKGSLHRISEVFDCWFESGSMPYAQVHYPFENKREFEDAFPADFIAEGIDQTRGWFYTLLVLATALFGQPPFKNVIVNGLVLASDGQKMSKRKKNYPDPVSIIQKYGADALRLYLINSPVVRAENLRFKEEGVRDVLKDVLLPWYNAYRFLIQNVLRLQKEEEIEFLYNENTVRESPNITDRWILSFMQSLIGFFETEMAAYRLYTVVPRLVKFVDILTNWYVRMNRRRLKGENGMEDCVMALETLFSVLLSLCRLMAPYTPFLTELMYQNLKVLIDPVSVQDKDTLSIHYLMLPRVREELIDKKTESAVSQMQSVIELGRVIRDRKTIPIKYPLKEIVVIHQDPEALKDIKSLEKYIIEELNVRKVTLSTDKNKYGIRLRAEPDHMVLGKRLKGAFKAVMTSIKQLSSEELEQFQKTGTIVVEGHELHDEDIRLMYTFDQATGGTAQFEAHSDAQALVLLDVTPDQSMVDEGMAREVINRIQKLRKKCNLVPTDEITVYYKAKSEGTYLNSVIESHTEFIFTTIKAPLKPYPVSPSDKVLIQEKTQLKGSELEITLTRGSSLPGPACAYVNLNICANGSEQGGVLLLENPKGDNRLDLLKLKSVVTSIFGVKNTELAVFHDETEIQNQTDLLSLSGKTLCVTAGSAPSLINSSSTLLCQYINLQLLNAKPQECLMGTVGTLLLENPLGQNGLTHQGLLYEAAKVFGLRSRKLKLFLNETQTQEITEDIPVKTLNMKTVYVSVLPTTADF | binds |
| 3-hydroxyacyl-CoA dehydrogenase type-2, isoform 1 (protein, UniProt Q99714 1-261) MAAACRSVKGLVAVITGGASGLGLATAERLVGQGASAVLLDLPNSGGEAQAKKLGNNCVFAPADVTSEKDVQTALALAKGKFGRVDVAVNCAGIAVASKTYNLKKGQTHTLEDFQRVLDVNLMGTFNVIRLVAGEMGQNEPDQGGQRGVIINTASVAAFEGQVGQAAYSASKGGIVGMTLPIARDLAPIGIRVMTIAPGLFGTPLLTSLPEKVCNFLASQVPFPSRLGDPAEYAHLVQAIIENPFLNGEVIRLDGAIRMQP | binds |

The next lines start with the values.

| binding | Binder |
| --- | --- |
| binds | Valyl-tRNA synthetase (protein, UniProt P26640 1-1264) MSTLYVSPHPDAFPSLRALIAARYGEAGEGPGWGGAHPRICLQPPPTSRTPFPPPRLPALEQGPGGLWVWGATAVAQLLWPAGLGGPGGSRAAVLVQQWVSYADTELIPAACGATLPALGLRSSAQDPQAVLGALGRALSPLEEWLRLHTYLAGEAPTLADLAAVTALLLPFRYVLDPPARRIWNNVTRWFVTCVRQPEFRAVLGEVVLYSGARPLSHQPGPEAPALPKTAAQLKKEAKKREKLEKFQQKQKIQQQQPPPGEKKPKPEKREKRDPGVITYDLPTPPGEKKDVSGPMPDSYSPRYVEAAWYPWWEQQGFFKPEYGRPNVSAANPRGVFMMCIPPPNVTGSLHLGHALTNAIQDSLTRWHRMRGETTLWNPGCDHAGIATQVVVEKKLWREQGLSRHQLGREAFLQEVWKWKEEKGDRIYHQLKKLGSSLDWDRACFTMDPKLSAAVTEAFVRLHEEGIIYRSTRLVNWSCTLNSAISDIEVDKKELTGRTLLSVPGYKEKVEFGVLVSFAYKVQGSDSDEEVVVATTRIETMLGDVAVAVHPKDTRYQHLKGKNVIHPFLSRSLPIVFDEFVDMDFGTGAVKITPAHDQNDYEVGQRHGLEAISIMDSRGALINVPPPFLGLPRFEARKAVLVALKERGLFRGIEDNPMVVPLCNRSKDVVEPLLRPQWYVRCGEMAQAASAAVTRGDLRILPEAHQRTWHAWMDNIREWCISRQLWWGHRIPAYFVTVSDPAVPPGEDPDGRYWVSGRNEAEAREKAAKEFGVSPDKISLQQDEDVLDTWFSSGLFPLSILGWPNQSEDLSVFYPGTLLETGHDILFFWVARMVMLGLKLTGRLPFREVYLHAIVRDAHGRKMSKSLGNVIDPLDVIYGISLQGLHNQLLNSNLDPSEVEKAKEGQKADFPAGIPECGTDALRFGLCAYMSQGRDINLDVNRILGYRHFCNKLWNATKFALRGLGKGFVPSPTSQPGGHESLVDRWIRSRLTEAVRLSNQGFQAYDFPAVTTAQYSFWLYELCDVYLECLKPVLNGVDQVAAECARQTLYTCLDVGLRLLSPFMPFVTEELFQRLPRRMPQAPPSLCVTPYPEPSECSWKDPEAEAALELALSITRAVRSLRADYNLTRIRPDCFLEVADEATGALASAVSGYVQALASAGVVAVLALGAPAPQGCAVALASDRCSIHLQLQGLVDPARELGKLQAKRVEAQRQAQRLRERRAASGYPVKVPLEVQEADEAKLQQTEAELRKVDEAIALFQKML |
| binds | Structural maintenance of chromosomes protein 1A (protein, UniProt Q14683 1-1233) MGFLKLIEIENFKSYKGRQIIGPFQRFTAIIGPNGSGKSNLMDAISFVLGEKTSNLRVKTLRDLIHGAPVGKPAANRAFVSMVYSEEGAEDRTFARVIVGGSSEYKINNKVVQLHEYSEELEKLGILIKARNFLVFQGAVESIAMKNPKERTALFEEISRSGELAQEYDKRKKEMVKAEEDTQFNYHRKKNIAAERKEAKQEKEEADRYQRLKDEVVRAQVQLQLFKLYHNEVEIEKLNKELASKNKEIEKDKKRMDKVEDELKEKKKELGKMMREQQQIEKEIKEKDSELNQKRPQYIKAKENTSHKIKKLEAAKKSLQNAQKHYKKRKGDMDELEKEMLSVEKARQEFEERMEEESQSQGRDLTLEENQVKKYHRLKEEASKRAATLAQELEKFNRDQKADQDRLDLEERKKVETEAKIKQKLREIEENQKRIEKLEEYITTSKQSLEEQKKLEGELTEEVEMAKRRIDEINKELNQVMEQLGDARIDRQESSRQQRKAEIMESIKRLYPGSVYGRLIDLCQPTQKKYQIAVTKVLGKNMDAIIVDSEKTGRDCIQYIKEQRGEPETFLPLDYLEVKPTDEKLRELKGAKLVIDVIRYEPPHIKKALQYACGNALVCDNVEDARRIAFGGHQRHKTVALDGTLFQKSGVISGGASDLKAKARRWDEKAVDKLKEKKERLTEELKEQMKAKRKEAELRQVQSQAHGLQMRLKYSQSDLEQTKTRHLALNLQEKSKLESELANFGPRINDIKRIIQSREREMKDLKEKMNQVEDEVFEEFCREIGVRNIREFEEEKVKRQNEIAKKRLEFENQKTRLGIQLDFEKNQLKEDQDKVHMWEQTVKKDENEIEKLKKEEQRHMKIIDETMAQLQDLKNQHLAKKSEVNDKNHEMEEIRKKLGGANKEMTHLQKEVTAIETKLEQKRSDRHNLLQACKMQDIKLPLSKGTMDDISQEEGSSQGEDSVSGSQRISSIYAREALIEIDYGDLCEDLKDAQAEEEIKQEMNTLQQKLNEQQSVLQRIAAPNMKAMEKLESVRDKFQETSDEFEAARKRAKKAKQAFEQIKKERFDRFNACFESVATNIDEIYKALSRNSSAQAFLGPENPEEPYLDGINYNCVAPGKRFRPMDNLSGGEKTVAALALLFAIHSYKPAPFFVLDEIDAALDNTNIGKVANYIKEQSTCNFQAIVISLKEEFYTKAESLIGVYPEQGDCVISKVLTFDLTKYPDANPNPNEQ |
